# Data as given in PubChem BioAssay AID504786 (Drosophila RNAi Screening Center, 2011).
# Screen: 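Knock-downs reducing HIF reporter induction by the iron chelator DFO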 (primary screen)
# Cells: Drosophila S2 cells with a stable HIF luciferase reporter
# Reagents: long dsRNA against Drosophila genes, about 0.2 µg dsRNA per well of a 384-well plate
# Time to read-out: three days of knock-down, then 20 h of DFO before reading
# Treatment: desferrioxamine (DFO) at 100 µM, an iron chelator that mimics hypoxia, for 20 h
# Measurement: 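Firefly luciferase driven by the mouse ldh-a hypoxia-response element, measured after 20 h of 100 µM DFO; z-scores per plate, higher means more signal lost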
# Reading the numbers: z-score: higher = stronger loss of HIF reporter signal
# The screen tested about 21,000 reagents; below is a random part of those that have a named target and a result. 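Primary screen; positive scores mean lost reporter signal, so the sign may be inverted from the usual convention.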 The numbers tell different reagents against one gene apart. Names joined by + are all predicted targets of the reagent. Not all columns of the deposit are shown.
The opening 6 records, to show the layout:
target,reagent no.,"z-score, replicate 1"
shams,1,-0.3
CG15882,1,-0.4
slp1,1,-0.4
CG14866,1,-0.3
Zip48C,1,-0.3
CG31265,1,-0.4

Main list, from the start:
target,reagent no.,"z-score, replicate 1"
shams,1,-0.3
CG15882,1,-0.4
slp1,1,-0.4
CG14866,1,-0.3
Zip48C,1,-0.3
CG31265,1,-0.4
CG3597,1,-0.2
fidipidine,1,-0.3
CG11619,1,-0.2
Atet,1,-0.4
Nf-YB,1,-0.4
Dif,1,-0.2
vret,1,-0.3
Lcch3,1,-0.3
alpha-Man-Ia,1,0.6
alpha-Man-Ia,2,-0.1
alpha-Man-Ia,3,-0.3
alpha-Man-Ia,4,-0.1
eIF2alpha,1,1.9
l(3)87Df,1,0.1
Mgat2,1,-0.4
Imp,1,-0.4
Imp,2,0
PGRP-LA,1,-0.3
PGRP-LA,2,-0.3
CG2685,1,3
CG15614,1,-0.3
hay,1,-0.1
Cpr92F,1,-0.6
CG15927,1,-0.1
Jhbp6,1,-0.3
CG32189,1,-0.2
Sgt,1,-0.4
Tmtc3,1,-0.1
CG2794,1,-0.2
UBL3,1,0.1
esc,1,-0.3
Vm26Ac,1,-0.3
ine,1,-0.2
narya,1,-0.3
mael,1,-0.3
CG10405,1,-0.1
Ube4B,1,-0.3
ZnT77C,1,-0.3
ZnT77C,2,-0.2
fs(1)Ya,1,0.2
bbg,1,-0.4
bbg,2,-0.2
CG12099,1,-0.2
CG8665,1,-0.2
mTor,1,2.8
Cog3,1,-0.4
CG15353,1,-0.2
CG13857,1,-0.7
ru,1,-0.2
Phae1,1,-0.2
AlaRS-m,1,-0.1
CG45105,1,0.8
CG45105,2,1.1
Dad,1,-0.2
CG10183,1,0
Vps11,1,-0.1
CG31031 (retired record),1,0.1
Hmg-2,1,-0.2
Creld,1,-0.3
CG11839,1,-0.1
Tsp42Ej,1,-0.3
CG15784,1,-0.1
Rtnl2,1,-0.4
Mer,1,-0.6
snRNP-U1-C,1,2.2
CG4734,1,-0.5
CG44838,1,1.4
CG44838,2,-0.2
osp,1,-0.2
osp,2,0.1
Lerp,1,-0.5
Lerp,2,-0.3
Lerp,3,-0.4
Lerp,4,-0.2
upd2,1,-0.4
BEAF-32 + CG42254 (retired record),1,0.5
alphaTub67C,1,0.6
